Assay results published in the supplement of paper PMC10849652.
The other results are listed elsewhere or left out.

Amino acid sequences for entries named in this document (tags omitted). A change or cut given only in a name is not applied to a line headed by its entry.
UniProt A8MXV4: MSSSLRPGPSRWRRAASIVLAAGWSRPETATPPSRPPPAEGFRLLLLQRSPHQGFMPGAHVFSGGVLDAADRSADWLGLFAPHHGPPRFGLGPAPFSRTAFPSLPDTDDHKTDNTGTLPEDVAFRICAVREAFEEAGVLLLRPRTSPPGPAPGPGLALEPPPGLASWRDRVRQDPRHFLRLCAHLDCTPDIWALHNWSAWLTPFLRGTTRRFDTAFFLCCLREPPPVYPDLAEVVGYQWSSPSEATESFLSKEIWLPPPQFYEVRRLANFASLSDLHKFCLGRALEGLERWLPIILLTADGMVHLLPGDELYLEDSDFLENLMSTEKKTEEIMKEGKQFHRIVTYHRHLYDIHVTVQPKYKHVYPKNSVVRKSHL
UniProt Q5SY16: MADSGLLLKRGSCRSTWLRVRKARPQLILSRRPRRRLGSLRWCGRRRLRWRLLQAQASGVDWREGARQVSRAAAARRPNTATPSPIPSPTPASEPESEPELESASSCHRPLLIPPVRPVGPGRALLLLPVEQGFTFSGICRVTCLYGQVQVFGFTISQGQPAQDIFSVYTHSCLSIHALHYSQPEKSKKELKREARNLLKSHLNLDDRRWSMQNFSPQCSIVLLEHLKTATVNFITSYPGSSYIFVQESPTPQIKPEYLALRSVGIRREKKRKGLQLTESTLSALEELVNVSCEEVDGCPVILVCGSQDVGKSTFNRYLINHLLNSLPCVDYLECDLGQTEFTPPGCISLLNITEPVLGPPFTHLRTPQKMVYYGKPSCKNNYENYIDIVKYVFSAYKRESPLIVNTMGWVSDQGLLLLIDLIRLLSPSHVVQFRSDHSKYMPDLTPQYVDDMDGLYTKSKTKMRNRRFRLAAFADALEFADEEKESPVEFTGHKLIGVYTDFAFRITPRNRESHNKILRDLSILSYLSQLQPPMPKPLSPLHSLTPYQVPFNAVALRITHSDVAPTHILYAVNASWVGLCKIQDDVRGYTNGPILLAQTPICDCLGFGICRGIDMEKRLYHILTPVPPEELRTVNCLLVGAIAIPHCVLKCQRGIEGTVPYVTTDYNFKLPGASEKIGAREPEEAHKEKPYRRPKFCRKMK
UniProt O75414: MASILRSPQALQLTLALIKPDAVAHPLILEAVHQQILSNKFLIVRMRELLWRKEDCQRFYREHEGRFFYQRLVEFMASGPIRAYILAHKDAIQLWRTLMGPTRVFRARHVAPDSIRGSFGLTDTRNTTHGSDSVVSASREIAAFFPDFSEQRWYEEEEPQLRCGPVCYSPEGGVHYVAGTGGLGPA
UniProt Q9H857: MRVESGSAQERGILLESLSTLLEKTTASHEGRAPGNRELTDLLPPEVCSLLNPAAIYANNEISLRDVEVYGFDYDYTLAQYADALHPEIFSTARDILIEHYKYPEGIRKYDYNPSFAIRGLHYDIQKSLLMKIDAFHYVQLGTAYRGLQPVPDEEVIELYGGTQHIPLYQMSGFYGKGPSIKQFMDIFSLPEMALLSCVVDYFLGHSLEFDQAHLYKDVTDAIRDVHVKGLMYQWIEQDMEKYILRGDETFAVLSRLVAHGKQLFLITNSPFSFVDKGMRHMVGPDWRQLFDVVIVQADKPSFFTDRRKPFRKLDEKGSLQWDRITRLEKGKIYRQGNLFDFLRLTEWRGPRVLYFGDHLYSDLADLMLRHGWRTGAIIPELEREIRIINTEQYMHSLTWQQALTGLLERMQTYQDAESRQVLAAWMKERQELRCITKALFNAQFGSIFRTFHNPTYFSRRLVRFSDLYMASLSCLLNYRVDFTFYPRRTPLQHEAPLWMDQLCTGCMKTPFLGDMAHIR
UniProt Q96AB6: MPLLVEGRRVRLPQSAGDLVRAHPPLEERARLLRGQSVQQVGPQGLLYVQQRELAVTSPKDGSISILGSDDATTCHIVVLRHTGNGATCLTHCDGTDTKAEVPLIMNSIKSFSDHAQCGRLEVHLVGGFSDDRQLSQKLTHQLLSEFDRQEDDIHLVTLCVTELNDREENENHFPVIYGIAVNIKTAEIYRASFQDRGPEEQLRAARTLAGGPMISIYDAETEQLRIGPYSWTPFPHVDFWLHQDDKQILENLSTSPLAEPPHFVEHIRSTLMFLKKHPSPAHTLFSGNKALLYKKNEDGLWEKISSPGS
UniProt Q9NV35: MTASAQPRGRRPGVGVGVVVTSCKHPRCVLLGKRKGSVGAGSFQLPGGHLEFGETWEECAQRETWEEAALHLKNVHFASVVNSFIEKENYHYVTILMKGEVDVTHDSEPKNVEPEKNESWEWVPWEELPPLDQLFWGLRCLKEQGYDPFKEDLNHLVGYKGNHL
UniProt P15531, whole entry, looked up: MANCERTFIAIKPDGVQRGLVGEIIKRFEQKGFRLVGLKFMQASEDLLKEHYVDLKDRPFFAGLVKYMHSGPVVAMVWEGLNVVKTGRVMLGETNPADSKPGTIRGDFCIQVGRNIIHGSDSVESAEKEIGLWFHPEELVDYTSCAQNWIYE
UniProt Q8NE18: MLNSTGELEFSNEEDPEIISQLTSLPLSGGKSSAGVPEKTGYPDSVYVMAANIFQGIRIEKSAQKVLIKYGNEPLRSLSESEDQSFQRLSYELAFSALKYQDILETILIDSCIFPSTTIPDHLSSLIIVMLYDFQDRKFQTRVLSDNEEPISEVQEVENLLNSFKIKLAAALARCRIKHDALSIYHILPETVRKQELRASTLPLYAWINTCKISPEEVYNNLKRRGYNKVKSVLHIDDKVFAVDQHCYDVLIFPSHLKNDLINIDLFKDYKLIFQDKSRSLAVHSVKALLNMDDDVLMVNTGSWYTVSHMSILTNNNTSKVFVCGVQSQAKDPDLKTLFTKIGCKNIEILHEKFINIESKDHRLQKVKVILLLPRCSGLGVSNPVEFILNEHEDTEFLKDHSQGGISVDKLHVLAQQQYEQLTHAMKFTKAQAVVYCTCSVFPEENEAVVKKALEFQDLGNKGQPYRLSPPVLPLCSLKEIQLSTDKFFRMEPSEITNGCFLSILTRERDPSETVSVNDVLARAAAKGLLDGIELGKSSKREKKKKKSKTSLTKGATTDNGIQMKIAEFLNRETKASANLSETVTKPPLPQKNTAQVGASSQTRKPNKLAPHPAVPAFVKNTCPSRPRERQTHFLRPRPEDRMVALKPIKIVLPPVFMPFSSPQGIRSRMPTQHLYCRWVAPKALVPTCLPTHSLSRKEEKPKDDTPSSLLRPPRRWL
UniProt P49116: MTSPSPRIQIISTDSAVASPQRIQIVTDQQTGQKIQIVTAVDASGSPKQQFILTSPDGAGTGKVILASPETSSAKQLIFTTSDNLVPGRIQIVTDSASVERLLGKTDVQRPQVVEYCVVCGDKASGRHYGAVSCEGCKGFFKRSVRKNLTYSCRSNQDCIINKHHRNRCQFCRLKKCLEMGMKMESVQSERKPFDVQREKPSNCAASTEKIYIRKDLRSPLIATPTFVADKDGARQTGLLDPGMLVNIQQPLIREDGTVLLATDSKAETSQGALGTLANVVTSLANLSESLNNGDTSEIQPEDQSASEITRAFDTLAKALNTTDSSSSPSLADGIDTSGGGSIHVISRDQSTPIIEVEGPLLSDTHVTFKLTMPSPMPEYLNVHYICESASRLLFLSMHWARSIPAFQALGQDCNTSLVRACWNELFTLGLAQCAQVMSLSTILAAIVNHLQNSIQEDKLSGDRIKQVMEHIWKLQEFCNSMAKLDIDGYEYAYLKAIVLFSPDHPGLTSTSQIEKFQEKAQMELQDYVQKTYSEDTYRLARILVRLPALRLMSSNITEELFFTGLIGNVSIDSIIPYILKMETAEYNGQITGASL
UniProt P46531, whole entry, looked up: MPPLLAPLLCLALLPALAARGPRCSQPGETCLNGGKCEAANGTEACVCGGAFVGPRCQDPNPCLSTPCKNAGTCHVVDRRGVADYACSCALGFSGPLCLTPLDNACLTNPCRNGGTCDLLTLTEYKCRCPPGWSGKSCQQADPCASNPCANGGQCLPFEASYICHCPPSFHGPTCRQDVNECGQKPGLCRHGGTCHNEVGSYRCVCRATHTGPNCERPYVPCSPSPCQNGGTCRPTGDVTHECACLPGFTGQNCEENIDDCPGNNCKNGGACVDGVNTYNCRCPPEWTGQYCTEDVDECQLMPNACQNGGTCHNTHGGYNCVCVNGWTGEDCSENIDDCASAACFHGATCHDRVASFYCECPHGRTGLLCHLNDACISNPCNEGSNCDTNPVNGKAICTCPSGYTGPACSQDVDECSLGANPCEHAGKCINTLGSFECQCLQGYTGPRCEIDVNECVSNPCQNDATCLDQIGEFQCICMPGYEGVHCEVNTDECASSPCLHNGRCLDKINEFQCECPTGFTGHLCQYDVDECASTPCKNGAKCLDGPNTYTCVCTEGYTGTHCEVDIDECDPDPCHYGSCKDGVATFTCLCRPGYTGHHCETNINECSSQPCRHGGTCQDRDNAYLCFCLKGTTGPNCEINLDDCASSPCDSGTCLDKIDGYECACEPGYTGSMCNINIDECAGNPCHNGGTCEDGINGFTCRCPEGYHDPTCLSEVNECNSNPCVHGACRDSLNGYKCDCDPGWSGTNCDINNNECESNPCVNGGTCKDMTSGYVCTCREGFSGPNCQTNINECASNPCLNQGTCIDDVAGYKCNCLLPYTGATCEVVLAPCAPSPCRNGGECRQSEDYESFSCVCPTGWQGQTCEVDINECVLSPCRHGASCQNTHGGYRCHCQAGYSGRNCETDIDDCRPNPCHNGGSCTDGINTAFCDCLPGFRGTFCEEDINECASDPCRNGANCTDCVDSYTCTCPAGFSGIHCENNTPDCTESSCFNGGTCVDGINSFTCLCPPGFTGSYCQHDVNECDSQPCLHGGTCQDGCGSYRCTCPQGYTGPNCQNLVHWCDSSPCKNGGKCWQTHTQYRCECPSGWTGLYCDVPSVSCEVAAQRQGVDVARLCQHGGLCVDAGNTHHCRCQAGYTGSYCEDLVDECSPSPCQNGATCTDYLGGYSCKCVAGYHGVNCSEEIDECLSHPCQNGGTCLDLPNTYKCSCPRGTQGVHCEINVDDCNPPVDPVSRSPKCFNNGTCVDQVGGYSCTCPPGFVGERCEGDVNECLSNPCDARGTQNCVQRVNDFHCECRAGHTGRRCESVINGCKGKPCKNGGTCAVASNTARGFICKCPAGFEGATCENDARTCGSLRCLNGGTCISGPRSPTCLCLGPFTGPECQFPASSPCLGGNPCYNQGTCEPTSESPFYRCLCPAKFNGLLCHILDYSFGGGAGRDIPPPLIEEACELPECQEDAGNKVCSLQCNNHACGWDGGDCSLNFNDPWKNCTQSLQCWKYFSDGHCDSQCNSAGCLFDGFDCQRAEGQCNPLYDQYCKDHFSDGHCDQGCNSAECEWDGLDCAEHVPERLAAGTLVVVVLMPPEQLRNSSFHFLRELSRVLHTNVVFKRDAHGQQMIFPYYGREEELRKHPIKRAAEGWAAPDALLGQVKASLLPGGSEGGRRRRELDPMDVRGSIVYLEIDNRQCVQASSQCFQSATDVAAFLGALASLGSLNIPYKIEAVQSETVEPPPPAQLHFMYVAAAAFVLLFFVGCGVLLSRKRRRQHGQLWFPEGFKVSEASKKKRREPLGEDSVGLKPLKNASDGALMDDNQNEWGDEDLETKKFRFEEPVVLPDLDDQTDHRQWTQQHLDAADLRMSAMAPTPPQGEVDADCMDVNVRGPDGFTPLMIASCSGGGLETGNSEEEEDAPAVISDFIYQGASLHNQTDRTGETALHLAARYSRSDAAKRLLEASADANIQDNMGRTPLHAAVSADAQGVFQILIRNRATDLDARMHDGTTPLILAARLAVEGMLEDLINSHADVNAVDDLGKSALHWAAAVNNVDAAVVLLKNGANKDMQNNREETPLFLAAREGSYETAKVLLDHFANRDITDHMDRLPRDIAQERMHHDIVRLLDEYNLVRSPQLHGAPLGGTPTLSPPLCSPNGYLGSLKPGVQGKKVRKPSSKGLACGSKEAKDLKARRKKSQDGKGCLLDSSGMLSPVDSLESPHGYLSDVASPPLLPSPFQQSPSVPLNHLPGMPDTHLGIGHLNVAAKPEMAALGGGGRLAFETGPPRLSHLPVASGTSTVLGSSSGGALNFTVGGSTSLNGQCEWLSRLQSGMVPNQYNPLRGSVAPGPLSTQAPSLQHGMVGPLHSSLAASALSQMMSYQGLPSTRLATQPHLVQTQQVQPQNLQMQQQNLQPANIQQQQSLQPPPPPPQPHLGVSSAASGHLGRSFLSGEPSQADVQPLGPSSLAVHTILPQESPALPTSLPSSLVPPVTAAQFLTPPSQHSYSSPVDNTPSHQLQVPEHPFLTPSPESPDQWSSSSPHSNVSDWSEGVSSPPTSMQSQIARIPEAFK
UniProt Q9BXD5: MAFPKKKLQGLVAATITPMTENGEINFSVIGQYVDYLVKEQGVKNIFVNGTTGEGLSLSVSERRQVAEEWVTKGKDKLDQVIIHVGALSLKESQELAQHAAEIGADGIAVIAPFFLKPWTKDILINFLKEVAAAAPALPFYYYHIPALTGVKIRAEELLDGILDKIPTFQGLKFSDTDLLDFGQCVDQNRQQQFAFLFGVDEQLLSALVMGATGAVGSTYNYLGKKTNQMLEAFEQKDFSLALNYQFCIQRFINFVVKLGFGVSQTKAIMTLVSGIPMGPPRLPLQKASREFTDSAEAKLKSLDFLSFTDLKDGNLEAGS

Key:
Assay in all cases: log2 fold change, soluble protein after heating vs DMSO (PISA); higher = thermal stabilisation; K562 lysate, 10 uM; active = over 0.2 and 3.5 SD of the protein, either way, in both replicates (recomputed)
vemurafenib = compound: CCCS(=O)(=O)Nc1ccc(F)c(C(=O)c2c[nH]c3ncc(-c4ccc(Cl)cc4)cc23)c1F [vemurafenib]
Summary of the method: (§1)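 Pellets of K562 cells were dounce-homogenised in PBS pH 7.4 with 1 mM MgCl2, and the crude extract was held at 1 mg/mL protein for a 30 min treatment with 10 μM compound. Aliquots were heated for 3 min over 48°C-58°C and pooled before NP-40 was added to 0.5% at 4°C. The supernatant from 21,000xg for 90 min was quantified by TMTpro 16plex LC-MS/MS with channel sums equalised. Values are reported from duplicates as log-two fold change in thermal stability relative to solvent controls.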

[1] = compound: CCCS(=O)(=O)Nc1ccc(F)c(C(=O)c2c[nH]c3ncc(Cl)cc23)c1F
Summary of the method: as §1

barasertib = compound: CCN(CCCOc1ccc2c(Nc3cc(CC(=O)Nc4cccc(F)c4)[nH]n3)ncnc2c1)CCOP(=O)(O)O [barasertib]
Summary of the method: as §1

[2] = compound: CC[C@@H]1C(=O)N(C)c2cnc(Nc3ccc(C(=O)NC4CCN(C)CC4)cc3OC)nc2N1C1CCCC1
Summary of the method: as §1

volasertib = compound: CC[C@@H]1C(=O)N(C)c2cnc(Nc3ccc(C(=O)N[C@H]4CC[C@H](N5CCN(CC6CC6)CC5)CC4)cc3OC)nc2N1C(C)C [volasertib]
Summary of the method: as §1

[3] = compound: CCn1c(C(=O)N(C2CC2)C2CC2)cc2c3c(ncn3C)c(Nc3cc(C)n(C)n3)nc21
Summary of the method: as §1

[4] = compound: CCn1cc(-c2ccnc3[nH]c(-c4cccc(CN(C)C)c4)cc23)c(-c2ccc(NC(=O)N(C)C)cc2)n1
Summary of the method: as §1

[5] = compound: CN1CCC(CNc2ccc3ncc(-c4cccc(OC(F)(F)F)c4)n3n2)CC1
Summary of the method: as §1

saracatinib = compound: CN1CCN(CCOc2cc(OC3CCOCC3)c3c(Nc4c(Cl)ccc5c4OCO5)ncnc3c2)CC1 [saracatinib]
Summary of the method: as §1

sotrastaurin = compound: CN1CCN(c2nc(C3=C(c4c[nH]c5ccccc45)C(=O)NC3=O)c3ccccc3n2)CC1 [sotrastaurin]
Summary of the method: as §1

alvocidib = compound: CN1CC[C@H](c2c(O)cc(O)c3c(=O)cc(-c4ccccc4Cl)oc23)[C@H](O)C1 [alvocidib]
Summary of the method: as §1

Tubastatin A = compound: CN1CCc2c(c3ccccc3n2Cc2ccc(C(=O)NO)cc2)C1 [Tubastatin A]
Summary of the method: as §1

[6] = compound: CNC(=O)C1=CC=CC=C1NC2=NC(=NC=C2Cl)NC3=C(C=C(C=C3)N4CCOCC4)OC
Summary of the method: as §1

defactinib = compound: CNC(=O)c1ccc(Nc2ncc(C(F)(F)F)c(NCc3nccnc3N(C)S(C)(=O)=O)n2)cc1 [defactinib]
Summary of the method: as §1

[7] = compound: CNc1nc(-c2ccc3c(N)n[nH]c3c2)cc(N2C[C@@H](C(=O)NC3CCCCC3)CC[C@H]2C)n1
Summary of the method: as §1

encorafenib = compound: COC(=O)N[C@@H](C)CNc1nccc(-c2cn(C(C)C)nc2-c2cc(Cl)cc(NS(C)(=O)=O)c2F)n1 [encorafenib]
Summary of the method: as §1

[8] = compound: COC(=O)[C@H](CCSC)NC(=O)C1=C(C=C(C=C1)NC[C@H](CS)N)C2=CC=CC=C2
Summary of the method: as §1

alisertib = compound: COc1cc(Nc2ncc3c(n2)-c2ccc(Cl)cc2C(c2c(F)cccc2OC)=NC3)ccc1C(=O)O [alisertib]
Summary of the method: as §1

[9] = compound: COc1cc2nc(-c3cc(F)ccc3O)nc(N[C@@H]3CNC[C@H]3C(C)(C)O)c2cc1OC
Summary of the method: as §1

gefitinib = compound: COc1cc2ncnc(Nc3ccc(F)c(Cl)c3)c2cc1OCCCN1CCOCC1 [gefitinib]
Summary of the method: as §1

Measured: log2 fold change

NOL12 (UniProt Q9UGY1)
inactive: vemurafenib 0.028 | [1] 0.029 | barasertib 0.012 | [2] -0.026 | volasertib -0.016 | [3] 0.008 | [4] -0.004 | [5] -0.043 | saracatinib 0.019 | sotrastaurin 0.013 | alvocidib 0.038 | Tubastatin A -0.014 | [6] -0.004 | defactinib -0.036 | [7] 0.02 | encorafenib -0.027 | [8] 0.044 | alisertib -0.058 | [9] 0.031 | gefitinib 0.098

NSMAF (UniProt Q92636)
inactive: vemurafenib 0.002 | [1] 0.007 | barasertib 0.015 | [2] 0.012 | volasertib 0.001 | [3] -0.066 | [4] 0.002 | [5] 0.053 | saracatinib 0.022 | sotrastaurin 0.025 | alvocidib 0.009 | Tubastatin A 0.015 | [6] -0.015 | defactinib 0.094 | [7] -0.014 | encorafenib 0.023 | [8] -0.029 | alisertib -0.015 | [9] 0.012 | gefitinib 0.028

NUDT19 (UniProt A8MXV4)
inactive: vemurafenib -0.003 | [1] 0.001 | barasertib -0.029 | [2] 0.012 | volasertib 0.001 | [3] 0.037 | [4] 0.003 | [5] 0.01 | saracatinib -0.017 | sotrastaurin -0.012 | alvocidib 0.003 | Tubastatin A -0.007 | [6] -0.004 | defactinib 0.018 | [7] -0.008 | encorafenib 0.002 | [8] -0.006 | alisertib -0.012 | [9] -0.075 | gefitinib -0.003

NOL9 (UniProt Q5SY16)
inactive: vemurafenib 0.044 | [1] -0.026 | barasertib -0.011 | [2] -0.001 | volasertib -0.003 | [3] 0 | [4] 0.028 | [5] -0.095 | saracatinib -0.022 | sotrastaurin 0.054 | alvocidib 0.043 | Tubastatin A -0.096 | [6] 0.018 | defactinib 0.011 | [7] -0.016 | encorafenib 0.073 | [8] 0.024 | alisertib -0.054 | [9] 0.007 | gefitinib -0.005

NME6 (UniProt O75414)
inactive: vemurafenib 0.057 | [1] -0.045 | barasertib -0.001 | [2] 0.044 | volasertib -0.019 | [3] 0.018 | [4] -0.082 | [5] 0.065 | saracatinib -0.057 | sotrastaurin -0.079 | alvocidib 0.087 | Tubastatin A 0.014 | [6] 0.006 | defactinib 0.029 | [7] 0.04 | encorafenib 0.01 | [8] 0 | alisertib 0.008 | [9] 0.042 | gefitinib -0.034

NT5DC2 isoform 2 (UniProt Q9H857)
inactive: vemurafenib 0 | [1] 0.069 | barasertib 0.001 | [2] 0.011 | volasertib -0.028 | [3] -0.01 | [4] 0.034 | [5] 0.03 | saracatinib -0.017 | sotrastaurin 0.117 | alvocidib -0.037 | Tubastatin A 0.02 | [6] 0.026 | defactinib 0.007 | [7] 0.032 | encorafenib -0.037 | [8] -0.035 | alisertib 0.013 | [9] -0.001 | gefitinib -0.055

NTAN1 (UniProt Q96AB6)
inactive: vemurafenib -0.105 | barasertib -0.057 | [2] 0.03 | [3] -0.003 | [4] -0.003 | [5] 0.059 | saracatinib 0.047 | sotrastaurin 0.016 | alvocidib -0.01 | Tubastatin A 0.02 | [6] -0.158 | defactinib -0.034 | [7] 0.073 | encorafenib 0.145 | [8] -0.003

NUBPL (UniProt Q8TB37)
inactive: vemurafenib 0.193 | [2] 0.072 | saracatinib -0.043 | defactinib -0.105 | [7] 0.055 | encorafenib -0.012 | [8] -0.149

NSUN2 (UniProt Q08J23)
inactive: vemurafenib 0.028 | [1] 0.004 | barasertib -0.006 | [2] -0.032 | volasertib 0.004 | [3] 0.037 | [4] 0.081 | [5] -0.022 | saracatinib 0.006 | sotrastaurin 0.005 | alvocidib 0.019 | Tubastatin A -0.097 | [6] -0.018 | defactinib 0.007 | [7] -0.024 | encorafenib -0.011 | [8] 0.096 | alisertib 0.014 | [9] -0.007 | gefitinib -0.02

NUDT15 (UniProt Q9NV35)
inactive: vemurafenib 0.019 | [1] 0.072 | barasertib -0.014 | [2] -0.06 | volasertib -0.06 | [3] -0.032 | [4] -0.235 | [5] -0.022 | saracatinib 0.038 | sotrastaurin 0.002 | alvocidib 0 | Tubastatin A -0.057 | [6] -0.071 | defactinib -0.025 | [7] 0.07 | encorafenib -0.009 | [8] 0.088 | alisertib -0.083 | [9] 0.036 | gefitinib 0.028

NME2P1 (UniProt O60361)
inactive: vemurafenib 0.256 | [1] -0.007 | barasertib 0.027 | volasertib 0.046 | [3] -0.173 | [4] -0.306 | [5] 0.14 | saracatinib 0.048 | sotrastaurin 0.059 | alvocidib -0.184 | Tubastatin A 0.157 | [6] -0.148 | defactinib -0.081 | [7] 0.268 | alisertib 0.119 | [9] 0.04 | gefitinib 0.011

NME1 isoform 2 (UniProt P15531)
inactive: vemurafenib 0.066 | [1] 0.015 | barasertib -0.007 | [2] -0.024 | volasertib 0.004 | [3] -0.008 | [4] 0.067 | [5] 0.029 | saracatinib -0.025 | sotrastaurin -0.031 | alvocidib 0.057 | Tubastatin A 0.052 | [6] 0.068 | defactinib 0.019 | [7] -0.049 | encorafenib -0.013 | [8] -0.031 | [9] -0.012

NSUN7 (UniProt Q8NE18)
inactive: vemurafenib -0.098 | [1] -0.046 | barasertib -0.084 | [2] -0.016 | volasertib 0.077 | [3] -0.049 | [4] -0.039 | [5] -0.032 | sotrastaurin 0.017 | alvocidib -0.191 | Tubastatin A 0.176 | [6] -0.001 | defactinib -0.035 | encorafenib 0.21 | [8] -0.026 | [9] -0.006

NMU (UniProt P48645)
inactive: vemurafenib -0.068 | [2] 0.012 | [4] 0.095 | [5] -0.03 | sotrastaurin 0.054 | alvocidib 0.077 | [6] 0.04 | defactinib 0.04 | encorafenib -0.275 | [8] 0.032

NR2C2 isoform 2 (UniProt P49116)
inactive: vemurafenib -0.087 | [1] 0.049 | barasertib 0.017 | [2] -0.091 | volasertib -0.001 | [3] 0.003 | [4] 0.075 | [5] -0.074 | saracatinib -0.058 | sotrastaurin 0.002 | alvocidib 0.075 | Tubastatin A -0.045 | [6] -0.03 | defactinib 0.058 | [7] 0.1 | encorafenib -0.002 | [8] -0.022 | [9] -0.002

Quoted at random: 2 records from the list
NUDT19 (UniProt A8MXV4)
inactive: vemurafenib -0.003 | [1] 0.001 | barasertib -0.029 | [2] 0.012 | volasertib 0.001 | [3] 0.037 | [4] 0.003 | [5] 0.01 | saracatinib -0.017 | sotrastaurin -0.012 | alvocidib 0.003 | Tubastatin A -0.007 | [6] -0.004 | defactinib 0.018 | [7] -0.008 | encorafenib 0.002 | [8] -0.006 | alisertib -0.012 | [9] -0.075 | gefitinib -0.003

NME6 (UniProt O75414)
inactive: vemurafenib 0.057 | [1] -0.045 | barasertib -0.001 | [2] 0.044 | volasertib -0.019 | [3] 0.018 | [4] -0.082 | [5] 0.065 | saracatinib -0.057 | sotrastaurin -0.079 | alvocidib 0.087 | Tubastatin A 0.014 | [6] 0.006 | defactinib 0.029 | [7] 0.04 | encorafenib 0.01 | [8] 0 | alisertib 0.008 | [9] 0.042 | gefitinib -0.034

(further entries)

NOTCH1 (UniProt P46531)
inactive: vemurafenib 0.017 | [1] 0.019 | [2] 0.034 | volasertib 0.018 | [3] -0.016 | [4] 0.006 | [5] -0.066 | saracatinib 0.048 | sotrastaurin 0.026 | alvocidib -0.018 | Tubastatin A 0.024 | [6] -0.034 | defactinib 0.068 | [7] -0.004 | encorafenib 0.134 | [8] -0.251 | alisertib -0.135 | [9] -0.014 | gefitinib 0.05

NPL (UniProt Q9BXD5)
inactive: vemurafenib 0.121 | [1] 0.08 | barasertib 0.048 | [2] -0.088 | volasertib 0.191 | [4] -0.241 | [5] -0.043 | saracatinib 0.052 | alvocidib 0.018 | [6] -0.033 | defactinib 0.023 | [7] 0.063 | encorafenib 0.032 | [8] 0.111 | alisertib 0.083 | [9] -0.076 | gefitinib -0.08
